Values of other authors in US20190214136A1, “PREDICTIVE BIOMARKERS OF DRUG RESPONSE IN MALIGNANCIES” (Regents of the University of Minnesota, priority 2017, published 2019).
At least one structure is not confirmed: it was looked up by name or label, or the drawing left a doubt.

Tests used:
[1] = system: B-cell malignancies cell lines (leukemias, lymphomas, myelomas)
[2] = system: relapsed, refractory, or plateau phase MM patients; details: single agent, study discontinued
WM primary patient lines = details: primary patient samples (n=32), CD19+, activated BCR pathway
[3] = system: MCL lines (BTZ-R and parental); details: acquired bortezomib resistance with re-activated BCR pathway
[4] = system: MCL line pairs xenografts; details: mouse xenografts of MCL line pairs

## Cc1nc(Nc2ncc(C(=O)Nc3c(C)cccc3Cl)s2)cc(N2CCN(CCO)CC2)n1 [dasatinib]
[1]; intermediate responding lines with low CD19 expression (n=20), 100% of lines
  AUSC score: > 0.85
[1]; of 71 B-cell lines, AUSC<0.75 and IC50 < maximum drug concentration divided by 4
  number of lines showing a strong response to low doses (Responders): 14 lines
[1]; of 71 B-cell lines, AUSC>0.98 and IC50 > maximum dose tested
  number of lines showing essentially no response (Non-Responders): 11 lines
[2]
  partial response (patients of those enrolled): 1 of 21
WM primary patient lines
  response to dasatinib: good response
[3]
  dose to which BTZ-R lines responded, less concentrated than parental lines: 10 fold
[4]
  increased sensitivity of BTZ-R versus parental lines in xenografts: These observations held true
